# Hit rate of the full screen: of about 59,000 compounds, about 35 (0.06%) were called active. This list was built around the results that the source calls inconclusive (neither active nor inactive); the mix of calls is not that of the screen. No stated cut-off is given here; in the data, active means max dye-equivalent concentration above about 10 nM; inconclusive means between about 1.1 nM and that limit; inactive means weaker than that.
# Test: qHTS Assay for Spectroscopic Profiling in Texas Red Spectral Region
# Conditions: Compound fluorescence, Texas Red channel, 547/618 nm; stronger effect = higher value
# Procedure, shortened: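 Texas Red-region profiling: compounds in 100 mM Tris pH 8.0 were read at 547/618 nm after 15 min at room temperature. Intensities were normalized against a six-point Texas Red standard series to give dye-equivalent concentration.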
row,Compound,max dye-equivalent concentration
1,O=C(NCCc1c[nH]c2ccccc12)c1cccnc1,inconclusive: 1.1 nM
2,Cc1nn(CC(=O)Nc2ccc(C(=O)N(C)C)cc2)c(=O)c2ccccc12,inconclusive: 1.1 nM
3,Cc1c(C(=O)N2CCc3ccccc32)oc2c1C(=O)CC(C)(C)C2,inconclusive: 2 nM
4,Cc1ccc(S(=O)(=O)Nc2ccccc2C(=O)c2ccc(C)c(C)c2)cc1,inconclusive: 1.1 nM
5,CC(=O)[C@H]1CC[C@@H]2[C@]1(C)CC=C1[C@]23C=C[C@]2(C[C@H](O)CC[C@@]12C)[C@H](C(=O)O)[C@@H]3C(=O)O,inactive
6,Cc1cccc(C)c1OCC(O)CN (stereo unspecified),inconclusive: 1.2 nM
7,Cc1c(N=C/C=C/c2ccccc2)cnn1C,inconclusive: 1.4 nM
8,COC(=O)c1[nH]c2cccc(Cl)c2c1NC(=O)CN1CCN(CCO)CC1,inconclusive: 1.5 nM
9,O=C(CN1CCN(c2ccccn2)CC1)NCc1cccs1,inactive
10,COc1ccccc1Nc1nnc(SCC(=O)N2CCCC2=O)s1,inconclusive: 3.9 nM
11,Clc1nc(NCCc2ccccc2)c2ncn(-c3ccccc3)c2n1,inactive
12,O=C(CN(C(=O)CNC(=O)c1ccco1)c1ccc2c(c1)OCO2)NC1CCCCC1,inconclusive: 1.7 nM
13,O=C(O)CCC(=O)N1CCN(c2ccccn2)CC1,inconclusive: 1.2 nM
14,CC(C)N(Cc1ccccc1)C(=O)COC(=O)c1ccc2c(c1)OCCO2,inconclusive: 1.4 nM
15,CCN(Cc1ccccc1)C(c1ccccn1)c1nnnn1C(C)(C)CC (stereo unspecified),inconclusive: 1.1 nM
16,CN1CCN(Cc2nc3c(c(=O)n(C)c(=O)n3C)n2Cc2cccc3ccccc23)CC1,inconclusive: 1.3 nM
17,C[C@@H]([C@H](O)c1ccc(O)cc1)N1CCC(Cc2ccccc2)CC1,inconclusive: 1.5 nM
18,O=C(CSc1ncc(-c2ccc(F)cc2)[nH]1)Nc1cccc(O)c1,inconclusive: 1.1 nM
19,O=C1NC(=O)C(c2cn(-c3ccccc3)nc2-c2ccc(F)cc2)N1 (stereo unspecified),inconclusive: 1.2 nM

# Look-ups from above:
# Cc1nn(CC(=O)Nc2ccc(C(=O)N(C)C)cc2)c(=O)c2ccccc12 – max dye-equivalent concentration: inconclusive: 1.1 nM
# O=C(NCCc1c[nH]c2ccccc12)c1cccnc1 – max dye-equivalent concentration: inconclusive: 1.1 nM

# (further entries)

row,Compound,max dye-equivalent concentration
1,OCc1ccnc2c(O)cccc12,inconclusive: 1.3 nM
2,COCCCNC(=O)c1ccc2c(=O)n(C3CCCC3)c(=S)[nH]c2c1,inconclusive: 1.1 nM
3,Cc1ccc(/C=c2\sc3nc(-c4ccco4)nn3c2=O)o1,inactive
4,CC1CCC2(CC1)NC(=O)N(Cc1nc(-c3ccccc3)no1)C2=O (stereo unspecified),inconclusive: 3.2 nM
5,N#Cc1cccc(-c2nc3cnc(Nc4ccccc4)nc3n(C[C@H]3CCCO3)c2=O)c1,inactive
6,CCCc1nc2c(sc3nc4c(cc32)COC(C)(C)C4)c(=O)n1Cc1ccco1,inconclusive: 1.2 nM
7,CC1CN(c2oc(COc3ccc(Cl)cc3Cl)nc2C#N)CC(C)O1 (stereo unspecified),inconclusive: 1.1 nM
8,CN[C@@H](c1ccncc1)[C@@H](NC)c1ccncc1,inactive
9,O=C(O)C1C2C=CC(O2)C1C(=O)Nc1ccccc1C(F)(F)F (stereo unspecified),inconclusive: 1.6 nM
10,COc1cccc(Cn2c(=O)c(C)nc3cnc(OCc4ccccc4)nc32)c1,inconclusive: 1.7 nM
11,O=C(Nc1ccc2c(c1)OCO2)N1CCOCC1,inconclusive: 3.2 nM
12,Cc1oc(C)c2c(=O)ccc3c(c12)OC(N)=C(C#N)C3c1ccccc1 (stereo unspecified),inactive
13,CN(C)CCO[C@](C)(c1ccccc1)c1ccccn1,inactive
14,Cc1cc(C)c(C(=O)COC(=O)Cn2cnnn2)cc1C,inconclusive: 1.3 nM
15,CCNc1ccc(S(=O)(=O)C(F)(F)F)cc1NC(=O)C12CCC(CC1)C2,inconclusive: 1.1 nM
16,COC(=O)c1nc(-c2ccccc2)oc1N(C)C,inconclusive: 1.1 nM
17,CN1CCN(c2ncc3ncc(=O)n(-c4ccccc4)c3n2)CC1,inactive
18,CC#C[C@@]1(O)CC[C@@H]2[C@@H]3CCC4=CC(=O)CCC4=C3[C@@H](c3ccc(N(C)C)cc3)C[C@]21C,inactive
19,O=C(Nc1ccccn1)C(NS(=O)(=O)c1cccc2nsnc12)c1ccccc1 (stereo unspecified),inconclusive: 1.5 nM

row,Compound,max dye-equivalent concentration
1,Cc1cccc(OCc2nnc(SCC(=O)OC3CCCCC3)o2)c1,inconclusive: 2.8 nM
2,CCc1cc(C=NC2CCCCC2)c(O)s1,inconclusive: 1.4 nM
3,C[C@H](Oc1ccccc1)C(=O)N[C@@H]1C(=O)N2[C@@H]1SC(C)(C)[C@@H]2C(=O)O,inconclusive: 1.4 nM
4,CCOC(=O)c1[nH]c2c(c1C)C(=O)CC(c1ccc(OC)c(OC)c1)C2 (stereo unspecified),inconclusive: 1.3 nM
5,O=C(Nc1ccc(N2CCOCC2)c(Cl)c1)c1ccco1,inconclusive: 1.7 nM
6,COc1ccc(-c2nnc3ccc(SCC(=O)NCc4ccco4)nn23)cc1OC,inconclusive: 1.1 nM
7,Cc1ccc(NC2=NC(c3ccccc3)n3c(nc(C)cc3=O)N2)cc1 (stereo unspecified),inconclusive: 2.4 nM
8,Cc1cc(C)cc(-n2nnc(C(=O)NCc3ccccc3)c2N)c1,inconclusive: 1.3 nM
9,CCOC(=O)Cc1csc(Nc2c(C)n(C)n(-c3ccccc3)c2=O)n1,inconclusive: 1.6 nM
10,COc1ccccc1NC(=O)NC1(C(=O)N2CCC(O)CC2)CCCCC1,inconclusive: 1.6 nM
11,CCOc1ccc(NC(=O)c2cccc3c2C(=O)N(Cc2cccnc2)C3)cc1,inconclusive: 1.2 nM
12,Clc1ccc(CSCc2ccc(Cl)cc2Cl)c(Cl)c1,inconclusive: 1.1 nM
13,O=C(OCCN1C(=O)CCC1=O)c1ccc(S(=O)(=O)N2CCCCC2)cc1,inconclusive: 1.1 nM
14,Cc1nccn1CCC(=O)O,inconclusive: 1.4 nM
15,CC(C)CCN1CC(C(=O)NCc2ccc(F)cc2)CC1=O (stereo unspecified),inconclusive: 1.3 nM
16,COC(=O)c1ccc(N(CC(=O)NC2CCCC2)C(=O)CNC(=O)c2ccco2)cc1,inconclusive: 1.3 nM
17,CC(=O)Nc1ccc(S(=O)(=O)N2CCCCC2c2cccnc2)cc1 (stereo unspecified),inconclusive: 1.3 nM
18,CCCCCn1c(SCCC(C)C)nc2c1c(=O)[nH]c(=O)n2C,inconclusive: 1.3 nM

# — PubChem BioAssay AID587 (National Center for Advancing Translational Sciences (NCATS), 2007)
